Reference: patent US12503617B2, “Ink jet ink composition and recording method” (SEIKO EPSON CORPORATION, priority 2022, dated 2025)
Some of these results come from one statement about several compounds together.

Experiment: Solubility in 100 g of water at 20° C.

In the case of `CCC(O)CO` (stereo not shown) [1,2-butanediol], the miscibility with water is reported as “miscible with water (the solubility of the organic compound in 100 g of water at 20 °C is greater than 10 g)”.
